Results as given in the supplement of paper PMC10849652.
This is one part of the list.

Sequences of proteins named here, by UniProt entry; tags and fusion partners are left off. A change or cut given only in a name is not applied to a line headed by its entry.
UniProt Q9UHD9, whole entry, looked up: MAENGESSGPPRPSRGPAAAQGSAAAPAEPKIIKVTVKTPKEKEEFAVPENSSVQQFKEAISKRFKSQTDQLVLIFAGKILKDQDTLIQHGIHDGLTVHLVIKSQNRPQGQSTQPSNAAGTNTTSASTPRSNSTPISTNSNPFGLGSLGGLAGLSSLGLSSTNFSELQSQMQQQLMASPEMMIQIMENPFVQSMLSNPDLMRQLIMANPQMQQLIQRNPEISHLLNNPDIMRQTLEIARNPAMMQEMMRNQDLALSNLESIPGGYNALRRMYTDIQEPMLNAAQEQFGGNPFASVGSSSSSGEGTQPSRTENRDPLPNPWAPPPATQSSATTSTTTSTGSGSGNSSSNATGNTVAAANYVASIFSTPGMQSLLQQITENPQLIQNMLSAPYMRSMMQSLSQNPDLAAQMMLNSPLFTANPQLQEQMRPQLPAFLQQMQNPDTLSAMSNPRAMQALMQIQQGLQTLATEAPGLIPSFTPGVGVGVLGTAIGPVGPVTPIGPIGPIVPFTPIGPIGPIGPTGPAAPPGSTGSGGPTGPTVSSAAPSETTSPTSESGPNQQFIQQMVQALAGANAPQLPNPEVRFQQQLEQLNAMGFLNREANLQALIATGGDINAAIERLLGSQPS
UniProt P15374: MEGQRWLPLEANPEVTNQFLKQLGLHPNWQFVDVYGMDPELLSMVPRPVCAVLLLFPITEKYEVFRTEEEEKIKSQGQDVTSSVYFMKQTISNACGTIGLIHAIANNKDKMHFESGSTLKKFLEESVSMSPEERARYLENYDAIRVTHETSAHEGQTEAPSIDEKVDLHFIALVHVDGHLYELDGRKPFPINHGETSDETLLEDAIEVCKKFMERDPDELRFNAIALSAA
UniProt Q08AM6: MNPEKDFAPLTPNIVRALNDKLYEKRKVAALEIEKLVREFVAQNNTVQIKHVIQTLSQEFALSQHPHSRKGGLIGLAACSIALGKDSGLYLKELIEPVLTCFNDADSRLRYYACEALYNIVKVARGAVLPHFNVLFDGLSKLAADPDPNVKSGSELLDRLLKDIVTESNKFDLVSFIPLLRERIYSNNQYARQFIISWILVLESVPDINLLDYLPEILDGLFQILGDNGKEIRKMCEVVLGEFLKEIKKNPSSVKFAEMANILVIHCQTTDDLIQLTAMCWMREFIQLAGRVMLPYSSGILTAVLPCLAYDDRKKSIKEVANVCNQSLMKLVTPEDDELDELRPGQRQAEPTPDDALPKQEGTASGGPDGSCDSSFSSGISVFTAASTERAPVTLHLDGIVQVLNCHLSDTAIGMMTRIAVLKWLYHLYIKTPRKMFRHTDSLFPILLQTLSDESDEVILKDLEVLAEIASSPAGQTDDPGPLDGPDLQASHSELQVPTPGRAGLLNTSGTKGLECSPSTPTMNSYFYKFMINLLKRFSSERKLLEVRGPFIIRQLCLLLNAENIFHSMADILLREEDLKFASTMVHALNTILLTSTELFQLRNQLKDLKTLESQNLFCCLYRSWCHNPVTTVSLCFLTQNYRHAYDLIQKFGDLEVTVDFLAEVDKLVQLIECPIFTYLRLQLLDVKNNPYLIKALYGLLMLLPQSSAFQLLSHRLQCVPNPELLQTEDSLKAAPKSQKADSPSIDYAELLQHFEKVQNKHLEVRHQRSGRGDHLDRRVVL
UniProt Q8TED0: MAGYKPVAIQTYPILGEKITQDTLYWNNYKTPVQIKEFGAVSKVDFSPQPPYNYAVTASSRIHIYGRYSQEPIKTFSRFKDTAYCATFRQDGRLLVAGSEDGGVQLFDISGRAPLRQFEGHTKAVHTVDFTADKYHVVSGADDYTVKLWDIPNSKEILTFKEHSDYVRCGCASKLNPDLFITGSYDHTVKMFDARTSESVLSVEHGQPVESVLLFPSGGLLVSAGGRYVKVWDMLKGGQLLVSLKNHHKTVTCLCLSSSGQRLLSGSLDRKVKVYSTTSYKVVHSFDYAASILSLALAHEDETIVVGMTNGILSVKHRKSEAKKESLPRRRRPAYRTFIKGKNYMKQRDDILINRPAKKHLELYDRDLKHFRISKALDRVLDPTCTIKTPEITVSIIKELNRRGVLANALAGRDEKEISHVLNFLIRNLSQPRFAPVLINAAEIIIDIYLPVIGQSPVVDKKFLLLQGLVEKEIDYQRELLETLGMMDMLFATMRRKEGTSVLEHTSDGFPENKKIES
UniProt Q9BV40: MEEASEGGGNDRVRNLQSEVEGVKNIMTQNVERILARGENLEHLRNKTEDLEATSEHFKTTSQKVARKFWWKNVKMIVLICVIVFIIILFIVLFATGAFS
UniProt Q8TCY9: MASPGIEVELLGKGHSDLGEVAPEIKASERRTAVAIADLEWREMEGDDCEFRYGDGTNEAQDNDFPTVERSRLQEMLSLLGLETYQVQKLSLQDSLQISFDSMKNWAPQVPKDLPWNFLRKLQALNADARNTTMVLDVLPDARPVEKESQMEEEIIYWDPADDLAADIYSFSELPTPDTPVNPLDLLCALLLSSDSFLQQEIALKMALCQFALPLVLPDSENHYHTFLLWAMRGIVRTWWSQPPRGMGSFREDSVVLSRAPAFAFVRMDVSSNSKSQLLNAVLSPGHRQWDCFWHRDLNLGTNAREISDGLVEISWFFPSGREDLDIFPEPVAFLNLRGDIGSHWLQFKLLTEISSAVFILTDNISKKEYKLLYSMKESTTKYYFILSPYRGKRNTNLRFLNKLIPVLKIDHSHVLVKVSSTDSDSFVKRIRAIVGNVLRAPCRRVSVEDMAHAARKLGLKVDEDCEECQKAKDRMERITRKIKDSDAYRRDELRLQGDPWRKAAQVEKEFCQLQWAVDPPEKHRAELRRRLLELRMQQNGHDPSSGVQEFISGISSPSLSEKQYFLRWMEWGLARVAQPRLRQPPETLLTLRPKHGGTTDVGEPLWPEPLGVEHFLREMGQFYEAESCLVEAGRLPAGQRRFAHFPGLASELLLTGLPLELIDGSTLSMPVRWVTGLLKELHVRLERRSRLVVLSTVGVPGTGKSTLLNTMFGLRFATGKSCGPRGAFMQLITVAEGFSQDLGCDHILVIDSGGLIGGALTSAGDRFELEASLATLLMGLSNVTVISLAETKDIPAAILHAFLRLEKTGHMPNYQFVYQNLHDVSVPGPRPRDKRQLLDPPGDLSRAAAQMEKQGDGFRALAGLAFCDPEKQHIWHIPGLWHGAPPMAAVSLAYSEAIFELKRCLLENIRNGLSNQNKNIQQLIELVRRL
UniProt Q9BZL1: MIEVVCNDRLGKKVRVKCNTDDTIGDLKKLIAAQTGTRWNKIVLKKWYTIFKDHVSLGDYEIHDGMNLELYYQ
UniProt Q70J99: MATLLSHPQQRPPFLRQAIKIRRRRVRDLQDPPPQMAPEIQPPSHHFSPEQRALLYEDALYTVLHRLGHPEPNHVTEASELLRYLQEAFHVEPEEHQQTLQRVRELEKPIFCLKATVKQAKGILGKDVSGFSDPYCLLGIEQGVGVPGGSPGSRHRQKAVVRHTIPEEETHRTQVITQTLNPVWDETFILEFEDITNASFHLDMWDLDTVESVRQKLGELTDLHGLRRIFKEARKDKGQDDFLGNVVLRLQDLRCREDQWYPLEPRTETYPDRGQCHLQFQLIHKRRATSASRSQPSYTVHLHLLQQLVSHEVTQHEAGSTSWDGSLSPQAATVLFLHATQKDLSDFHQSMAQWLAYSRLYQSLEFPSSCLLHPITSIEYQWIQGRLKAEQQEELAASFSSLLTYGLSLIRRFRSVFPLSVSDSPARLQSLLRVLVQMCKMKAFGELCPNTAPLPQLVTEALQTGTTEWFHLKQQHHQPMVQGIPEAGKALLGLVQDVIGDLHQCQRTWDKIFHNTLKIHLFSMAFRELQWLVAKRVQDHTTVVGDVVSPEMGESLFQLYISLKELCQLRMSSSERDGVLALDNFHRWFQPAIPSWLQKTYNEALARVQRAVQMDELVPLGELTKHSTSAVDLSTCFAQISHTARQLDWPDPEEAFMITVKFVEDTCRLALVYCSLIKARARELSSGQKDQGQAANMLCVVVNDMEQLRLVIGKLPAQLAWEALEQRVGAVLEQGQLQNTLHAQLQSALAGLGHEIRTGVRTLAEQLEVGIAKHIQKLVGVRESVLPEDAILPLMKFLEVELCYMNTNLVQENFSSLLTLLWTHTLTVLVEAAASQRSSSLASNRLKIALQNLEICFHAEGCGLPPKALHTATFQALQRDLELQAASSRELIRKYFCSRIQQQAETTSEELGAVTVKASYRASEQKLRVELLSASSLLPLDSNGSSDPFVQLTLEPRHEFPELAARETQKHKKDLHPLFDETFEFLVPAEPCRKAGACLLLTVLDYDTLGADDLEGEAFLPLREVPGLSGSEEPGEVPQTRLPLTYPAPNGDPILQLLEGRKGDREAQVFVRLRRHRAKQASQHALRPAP
UniProt Q9H3U1: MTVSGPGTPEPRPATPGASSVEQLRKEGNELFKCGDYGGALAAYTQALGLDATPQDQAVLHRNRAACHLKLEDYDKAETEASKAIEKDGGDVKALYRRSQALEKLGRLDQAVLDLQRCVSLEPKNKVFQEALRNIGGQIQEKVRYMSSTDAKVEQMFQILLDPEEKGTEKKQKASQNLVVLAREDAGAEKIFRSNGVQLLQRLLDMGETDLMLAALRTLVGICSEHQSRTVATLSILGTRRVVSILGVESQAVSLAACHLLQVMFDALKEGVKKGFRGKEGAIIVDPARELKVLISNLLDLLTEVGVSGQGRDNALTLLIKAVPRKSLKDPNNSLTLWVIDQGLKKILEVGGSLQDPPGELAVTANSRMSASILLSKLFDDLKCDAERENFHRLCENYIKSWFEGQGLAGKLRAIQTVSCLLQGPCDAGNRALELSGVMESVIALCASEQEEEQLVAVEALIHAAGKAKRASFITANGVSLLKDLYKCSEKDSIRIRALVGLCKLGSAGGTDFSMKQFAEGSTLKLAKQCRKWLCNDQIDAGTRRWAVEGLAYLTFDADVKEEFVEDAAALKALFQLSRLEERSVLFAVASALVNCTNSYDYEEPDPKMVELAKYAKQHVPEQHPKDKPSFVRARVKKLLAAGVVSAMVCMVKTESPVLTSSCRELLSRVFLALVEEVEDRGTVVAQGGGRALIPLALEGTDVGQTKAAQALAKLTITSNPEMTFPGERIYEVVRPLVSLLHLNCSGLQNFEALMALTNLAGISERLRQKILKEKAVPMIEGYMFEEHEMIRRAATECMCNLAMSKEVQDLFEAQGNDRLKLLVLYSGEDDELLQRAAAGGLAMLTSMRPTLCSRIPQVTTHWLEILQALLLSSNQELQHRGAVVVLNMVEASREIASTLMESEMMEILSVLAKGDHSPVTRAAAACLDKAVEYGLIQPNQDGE
UniProt O14949: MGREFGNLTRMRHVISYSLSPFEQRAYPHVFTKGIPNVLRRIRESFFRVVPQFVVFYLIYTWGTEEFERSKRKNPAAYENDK
UniProt Q92900: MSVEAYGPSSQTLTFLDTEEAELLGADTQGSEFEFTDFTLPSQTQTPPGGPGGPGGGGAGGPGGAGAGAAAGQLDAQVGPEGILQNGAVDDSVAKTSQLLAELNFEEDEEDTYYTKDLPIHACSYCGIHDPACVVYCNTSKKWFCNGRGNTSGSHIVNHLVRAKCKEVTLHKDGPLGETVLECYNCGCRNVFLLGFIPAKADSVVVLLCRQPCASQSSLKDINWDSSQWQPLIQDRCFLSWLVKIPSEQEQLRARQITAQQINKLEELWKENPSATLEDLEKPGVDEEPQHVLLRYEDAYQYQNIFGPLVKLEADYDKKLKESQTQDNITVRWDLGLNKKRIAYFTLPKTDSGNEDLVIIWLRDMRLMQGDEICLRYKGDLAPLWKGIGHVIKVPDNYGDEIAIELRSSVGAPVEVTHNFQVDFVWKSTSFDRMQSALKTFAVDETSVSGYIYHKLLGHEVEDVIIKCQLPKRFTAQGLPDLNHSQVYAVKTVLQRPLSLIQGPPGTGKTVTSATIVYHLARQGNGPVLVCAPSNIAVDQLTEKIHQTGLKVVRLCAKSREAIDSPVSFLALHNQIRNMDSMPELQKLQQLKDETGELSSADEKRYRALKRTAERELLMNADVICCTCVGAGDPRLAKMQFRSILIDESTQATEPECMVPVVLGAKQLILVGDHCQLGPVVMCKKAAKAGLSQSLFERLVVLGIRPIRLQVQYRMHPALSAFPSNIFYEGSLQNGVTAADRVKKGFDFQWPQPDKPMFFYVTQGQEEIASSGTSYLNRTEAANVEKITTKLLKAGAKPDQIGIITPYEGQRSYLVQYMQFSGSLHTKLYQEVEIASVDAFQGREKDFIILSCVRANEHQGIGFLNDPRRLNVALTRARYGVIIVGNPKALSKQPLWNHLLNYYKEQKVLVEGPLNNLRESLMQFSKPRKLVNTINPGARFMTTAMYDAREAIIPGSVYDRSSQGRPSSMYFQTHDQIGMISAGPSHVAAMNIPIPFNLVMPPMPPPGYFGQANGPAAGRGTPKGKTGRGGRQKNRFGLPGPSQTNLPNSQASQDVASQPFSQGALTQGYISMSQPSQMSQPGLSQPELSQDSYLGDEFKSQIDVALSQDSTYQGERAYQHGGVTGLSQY

compound: CC(=O)c1cnc2ccc(-c3cc(Cl)c(O)c(Cl)c3)nc2c1N[C@H]1CC[C@H](CN(C)C)CC1; experiment: log2 fold change, soluble protein after heating vs DMSO (PISA); higher = thermal stabilisation; K562 cells, 10 uM, 30 min; active = over 0.2 and 3.5 SD of the protein, either way, in both replicates (recomputed)
How it was run: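 Aliquots of K562 cells (2×10^6 cells/mL) treated with 10 μM compound for 30 min were heated for 3 min over 48°C-58°C. After pooling and extraction in PBS with 0.5% NP-40 at 4°C, soluble protein from a 21,000xg, 90 min spin was quantified by TMTpro 16plex LC-MS/MS with channel sums equalised. Thermal stability is expressed against control samples, from duplicates, as a log2 fold change.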

| Target | log2 fold change |
| --- | --- |
| UBQLN2 (UniProt Q9UHD9) | inactive: -0.006 |
| UQCC1 (UniProt Q9NVA1) | inactive: -0.013 |
| USP1 (UniProt O94782) | inactive: -0.154 |
| UCK1 (UniProt Q9HA47) | inactive: -0.032 |
| UCHL3 (UniProt P15374) | inactive: 0.003 |
| VAC14 (UniProt Q08AM6) | inactive: 0.025 |
| UTP15 (UniProt Q8TED0) | inactive: 0.115 |
| VAMP8 (UniProt Q9BV40) | inactive: 0.02 |
| VASP (UniProt P50552) | inactive: -0.045 |
| URGCP (UniProt Q8TCY9) | inactive: 0.004 |
| UBL5 (UniProt Q9BZL1) | inactive: 0.013 |
| UIMC1 (UniProt Q96RL1) | inactive: 0.032 |
| USP47 (UniProt Q96K76) | inactive: 0.031 |
| UNC13D isoform 3 (UniProt Q70J99) | inactive: -0.08 |
| UNC45A (UniProt Q9H3U1) | inactive: 0.045 |
| UVRAG (UniProt Q9P2Y5) | inactive: 0.014 |
| URI1 isoform 4 (UniProt O94763) | inactive: 0.102 |
| VAMP4 (UniProt O75379) | inactive: 0.034 |
| UQCRQ (UniProt O14949) | inactive: 0.039 |
| UBR7 (UniProt Q8N806) | inactive: -0.042 |
| UPF1 (UniProt Q92900) | inactive: -0.01 |
| UFC1 (UniProt Q9Y3C8) | inactive: 0.039 |
| UBE3C (UniProt Q15386) | inactive: -0.031 |
| UBXN4 (UniProt Q92575) | inactive: -0.009 |

A few values from the results shown:
In log2 fold change, UBE3C (UniProt Q15386) is entered as inactive: -0.031
In log2 fold change, UBR7 (UniProt Q8N806) is entered as inactive: -0.042
